Laboratory results taken from publication PMC3531251.
No constants are given. Whether binding was seen depends on the method and setting. In cells and extracts the contact can be indirect. Some results given as binding are weak or reduced against the parent protein; the word gives no strength.

The chains behind the UniProt entries cited, without tags or fusion partners. Where a name states a change or a piece, a line headed by the entry shows the natural chain unless it says otherwise.
UniProt Q02821: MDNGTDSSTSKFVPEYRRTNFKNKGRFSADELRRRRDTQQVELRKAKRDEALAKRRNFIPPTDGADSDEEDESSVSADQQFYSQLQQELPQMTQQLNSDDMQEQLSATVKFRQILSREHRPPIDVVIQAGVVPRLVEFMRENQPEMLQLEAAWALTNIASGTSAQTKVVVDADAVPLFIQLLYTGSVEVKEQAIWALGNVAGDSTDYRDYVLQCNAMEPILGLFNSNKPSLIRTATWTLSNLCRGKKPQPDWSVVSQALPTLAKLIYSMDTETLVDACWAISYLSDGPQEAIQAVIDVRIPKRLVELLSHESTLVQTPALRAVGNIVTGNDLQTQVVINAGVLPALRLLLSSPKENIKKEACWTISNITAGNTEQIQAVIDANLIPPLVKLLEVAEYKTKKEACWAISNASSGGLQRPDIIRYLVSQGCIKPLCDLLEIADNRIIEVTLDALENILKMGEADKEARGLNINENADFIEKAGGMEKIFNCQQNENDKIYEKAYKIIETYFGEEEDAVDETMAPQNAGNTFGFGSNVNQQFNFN
UniProt P53035: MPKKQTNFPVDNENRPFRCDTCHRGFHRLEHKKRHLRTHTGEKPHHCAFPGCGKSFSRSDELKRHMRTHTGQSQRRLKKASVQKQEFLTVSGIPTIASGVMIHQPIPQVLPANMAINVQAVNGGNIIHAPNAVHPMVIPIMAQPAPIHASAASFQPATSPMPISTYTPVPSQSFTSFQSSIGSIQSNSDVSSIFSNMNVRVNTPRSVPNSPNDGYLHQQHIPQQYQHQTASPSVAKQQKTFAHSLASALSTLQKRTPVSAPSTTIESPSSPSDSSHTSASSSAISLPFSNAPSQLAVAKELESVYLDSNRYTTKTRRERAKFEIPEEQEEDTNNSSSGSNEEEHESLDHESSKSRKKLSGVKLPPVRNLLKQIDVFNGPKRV

What was measured:
[1] = target: Kap60 (importin-α), endogenous (S. cerevisiae (endogenous in yeast extract)) (UniProt Q02821); experiment: co-IP; whole cell extracts of yeast grown in high glucose or shifted to low glucose for 1 h; immunoprecipitated with polyclonal anti-Kap60 or anti-Kap95 and protein A-Sepharose, washed with PBS plus 0.5% deoxycholate; blot with anti-GFP
[2] = target: GST-Mig2nls1 fusion protein (S. cerevisiae) (UniProt P53035); experiment: pull-down; GST fusion on glutathione-Sepharose incubated with whole cell extract of W303-1A (high or low glucose) for 1 h at 4°C in PBS; blot with anti-Kap60 or anti-Kap95; only the target purified
[3] = target: GST-Mig2 fusion protein (S. cerevisiae) (UniProt P53035); experiment: as above

Row | binding [1] | binding [2] | binding [3] | Substance
1 | binds | – | – | Mig2-GFP (from UniProt P53035 1-382)
2 | – | binds | binds | Kap60 (importin-α), endogenous (from UniProt Q02821 1-542)
